In one experiment the target is JAK1 kinase (Homo sapiens (Human), UniProt P23458). To be noted: read-out: JAK1 IC50.
Another experiment concerns the target JAK2 kinase (Homo sapiens (Human), UniProt O60674). To be noted: read-out: JAK2 IC50.

Sequences of proteins named here, by UniProt entry; tags and fusion partners are left off. Residues count along the entry.
UniProt P23458, 850-1154: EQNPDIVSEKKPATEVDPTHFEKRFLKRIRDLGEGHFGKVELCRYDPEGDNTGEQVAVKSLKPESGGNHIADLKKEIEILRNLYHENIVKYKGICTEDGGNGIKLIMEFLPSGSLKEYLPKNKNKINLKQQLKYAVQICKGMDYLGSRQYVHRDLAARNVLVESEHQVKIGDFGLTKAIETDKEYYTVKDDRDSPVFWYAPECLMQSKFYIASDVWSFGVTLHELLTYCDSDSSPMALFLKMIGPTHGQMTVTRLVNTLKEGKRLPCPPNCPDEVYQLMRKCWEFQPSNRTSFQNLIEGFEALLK
UniProt O60674, 826-1132: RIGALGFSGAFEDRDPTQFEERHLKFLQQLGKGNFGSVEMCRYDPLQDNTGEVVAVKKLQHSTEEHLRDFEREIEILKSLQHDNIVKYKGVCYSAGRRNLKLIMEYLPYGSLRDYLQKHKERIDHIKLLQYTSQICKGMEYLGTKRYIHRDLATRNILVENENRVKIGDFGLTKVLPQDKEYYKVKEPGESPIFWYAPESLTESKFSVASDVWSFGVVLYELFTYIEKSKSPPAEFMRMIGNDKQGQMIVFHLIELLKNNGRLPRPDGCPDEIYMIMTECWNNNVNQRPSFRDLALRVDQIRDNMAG

Each structure is given as a SMILES string.

Turning to `Cc1cccc(C)c1CNc1nc(Nc2cnn(C)c2)ncc1C(N)=O` [Example 4, 4-((2,6-dimethylbenzyl)amino)-2-((1-methyl-1H-pyrazol-4-yl)amino)pyrimidin-5-carboxamide], the IC50 (usually the concentration at which inhibition is half-maximal) at JAK1 kinase stood at 22.2 nM; on JAK2 kinase it was 4.49 nM.

The values are drawn from patent publication US11344549B2 (priority 2017, dated 2022).
